# Reference: the supplement of paper PMC8166895
# Counter-ions that a name gives are not always drawn. The list shows a part of the results. Most entries show no effect beyond the scatter of the controls.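 Differential scanning fluorimetry gave melting temperatures in a one-replicate pilot screen of a library of approved drugs plus clinical or known-target compounds. Hits increasing melting point at least 2 °C were the strongest stabilizers, while negative shifts signify destabilization.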
# Test system: SARS-CoV-2 main protease (Mpro, nsp5)
# Experiment: thermal shift ΔTm of Mpro relative to plate average Tm; higher = stronger thermal stabilization of Mpro (binding)
# Conditions: 10 µM; protein concentration 1 µM
row,Structure (SMILES),thermal shift ΔTm of Mpro
1,CC1=C(/C=C/C(C)=C/C=C/C(C)=C/C(=O)Nc2ccc(O)cc2)C(C)(C)CCC1 [Fenretinide],0.285 °C
2,CC(=O)OC12COC1CC(O)C1(C)C(=O)C(O)C3=C(C)C(O)CC(O)(C(OC(=O)c4ccccc4)C21)C3(C)C (stereo not given) [10-Deacetylbaccatin-III],0.0232 °C
3,C[N+]12CCC(CC1)C(OC(=O)C(O)(c1ccccc1)c1ccccc1)C2 (stereo not given) [Clidinium bromide],0.0437 °C
4,C#C[C@]1(O)CC[C@H]2[C@@H]3[C@H](C)CC4=C(CCC(=O)C4)[C@H]3CC[C@@]21C [Tibolone],0.15 °C
5,CC(C)(C)c1cc(C(=O)C(C#N)=NNc2cccc(Cl)c2)no1,0.958 °C
6,CCc1nc(C(N)=O)c(Nc2ccc(N3CCC(N4CCN(C)CC4)CC3)c(OC)c2)nc1NC1CCOCC1 [Gilteritinib],0.0805 °C
7,O=C(O)COc1nn(Cc2ccccc2)c2ccccc12 [Bendazac L-lysine],0.0817 °C
8,S=C=Nc1ccc(N=C=S)cc1 [Biscomate],0.188 °C
9,OC[C@@H](O)[C@@H](O)[C@H](O)[C@@H](O)CO [Sorbitol],0.225 °C
10,COc1ccc(CC(=O)Nc2nc3c(s2)CCc2ccccc2-3)cc1OC,0.052 °C
11,CCCCC(=O)O[C@]1(C(=O)CO)[C@@H](C)C[C@H]2[C@@H]3CCC4=CC(=O)C=C[C@]4(C)[C@@]3(F)[C@@H](O)C[C@@]21C [Betamethasone valerate (Betnovate)],-0.191 °C
12,CO[C@]12C[C@@H](COC(=O)c3cncc(Br)c3)CN(C)[C@@H]1Cc1cn(C)c3cccc2c13 [Nicergoline],0.221 °C
13,CC(=O)OCC(=O)[C@@]1(O)CC[C@H]2[C@@H]3CCC4=CC(=O)CC[C@]4(C)[C@H]3C(=O)C[C@@]21C [Cortisone acetate],-0.0998 °C
14,COc1cc(C(=O)N2CCOCC2)cc(OC)c1OC [Trimetozine],0.104 °C
15,FC(F)(F)c1ccc(/C=C/c2nc(COc3ccc(CCCCn4ccnn4)cc3)co2)cc1 [Mubritinib (TAK 165)],-0.104 °C
16,COc1cc(-c2c(C)cc(O)cc2O[C@@H]2O[C@H](CO)[C@@H](O)[C@H](O)[C@H]2O)oc(=O)c1 [Aloenin A],-0.0273 °C
17,O=C1c2c(O)cc(O)cc2O[C@H](c2ccc(O)c(O)c2)[C@H]1O [(+)-Taxifolin],-0.95 °C
18,O=C1c2c(O)cc(O)cc2OC(c2ccc(O)c(O)c2)C1O (stereo not given) [Taxifolin (Dihydroquercetin)],-1.25 °C
19,CN(C)CCCOc1nn(Cc2ccccc2)c2ccccc12 [Benzydamine HCl],-0.0855 °C
20,COc1ccc(Nc2nccc(NCCO)n2)cc1 [Cardiogenol C hydrochloride],0.266 °C

# Sorted by molar mass (ascending): 3 of the compounds above.
row,Structure (SMILES),thermal shift ΔTm of Mpro
19,CN(C)CCCOc1nn(Cc2ccccc2)c2ccccc12 [Benzydamine HCl],-0.0855 °C
4,C#C[C@]1(O)CC[C@H]2[C@@H]3[C@H](C)CC4=C(CCC(=O)C4)[C@H]3CC[C@@]21C [Tibolone],0.15 °C
5,CC(C)(C)c1cc(C(=O)C(C#N)=NNc2cccc(Cl)c2)no1,0.958 °C
